Results are given in words; binding and its absence hold for the method and conditions named. Binding seen in cells or lysates may run through a third protein. Here binding means that the protein was enriched with, or labelled near, the bait; the list need not be complete.
Target: Engulfment and cell motility protein 1 (human (endogenous in MSC)) (UniProt Q92556)
Experiment: co-IP + affinity purification with mass spectrometry; MSC protein extract (HC-MSC and AS-MSC) incubated with an anti-ELMO1 antibody (1:100) or IgG control at 4 °C overnight, protein G agarose beads for another 4 h; immunoprecipitants collected for LC-MS/MS and western blotting

Protein sequences, listed by entry. Tags and fused reporters are not part of them.
UniProt Q92556: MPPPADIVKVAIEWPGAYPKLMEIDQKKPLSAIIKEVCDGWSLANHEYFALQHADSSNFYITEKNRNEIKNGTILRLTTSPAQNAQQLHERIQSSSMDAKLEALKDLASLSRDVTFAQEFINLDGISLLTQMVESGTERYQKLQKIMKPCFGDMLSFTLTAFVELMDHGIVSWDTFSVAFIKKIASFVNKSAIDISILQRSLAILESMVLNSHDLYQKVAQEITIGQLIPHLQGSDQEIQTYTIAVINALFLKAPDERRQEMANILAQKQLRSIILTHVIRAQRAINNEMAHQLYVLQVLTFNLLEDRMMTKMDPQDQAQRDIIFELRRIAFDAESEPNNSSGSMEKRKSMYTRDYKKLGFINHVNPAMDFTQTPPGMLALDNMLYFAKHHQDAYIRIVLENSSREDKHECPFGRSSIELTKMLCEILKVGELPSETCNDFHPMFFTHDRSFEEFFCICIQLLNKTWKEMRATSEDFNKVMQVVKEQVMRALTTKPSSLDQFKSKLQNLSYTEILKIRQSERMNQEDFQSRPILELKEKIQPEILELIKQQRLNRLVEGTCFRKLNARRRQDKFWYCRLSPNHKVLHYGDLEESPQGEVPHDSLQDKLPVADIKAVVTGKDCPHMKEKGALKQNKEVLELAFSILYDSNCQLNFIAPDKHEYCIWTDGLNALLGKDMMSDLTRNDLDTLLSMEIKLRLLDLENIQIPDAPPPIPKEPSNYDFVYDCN
UniProt Q8N1I0: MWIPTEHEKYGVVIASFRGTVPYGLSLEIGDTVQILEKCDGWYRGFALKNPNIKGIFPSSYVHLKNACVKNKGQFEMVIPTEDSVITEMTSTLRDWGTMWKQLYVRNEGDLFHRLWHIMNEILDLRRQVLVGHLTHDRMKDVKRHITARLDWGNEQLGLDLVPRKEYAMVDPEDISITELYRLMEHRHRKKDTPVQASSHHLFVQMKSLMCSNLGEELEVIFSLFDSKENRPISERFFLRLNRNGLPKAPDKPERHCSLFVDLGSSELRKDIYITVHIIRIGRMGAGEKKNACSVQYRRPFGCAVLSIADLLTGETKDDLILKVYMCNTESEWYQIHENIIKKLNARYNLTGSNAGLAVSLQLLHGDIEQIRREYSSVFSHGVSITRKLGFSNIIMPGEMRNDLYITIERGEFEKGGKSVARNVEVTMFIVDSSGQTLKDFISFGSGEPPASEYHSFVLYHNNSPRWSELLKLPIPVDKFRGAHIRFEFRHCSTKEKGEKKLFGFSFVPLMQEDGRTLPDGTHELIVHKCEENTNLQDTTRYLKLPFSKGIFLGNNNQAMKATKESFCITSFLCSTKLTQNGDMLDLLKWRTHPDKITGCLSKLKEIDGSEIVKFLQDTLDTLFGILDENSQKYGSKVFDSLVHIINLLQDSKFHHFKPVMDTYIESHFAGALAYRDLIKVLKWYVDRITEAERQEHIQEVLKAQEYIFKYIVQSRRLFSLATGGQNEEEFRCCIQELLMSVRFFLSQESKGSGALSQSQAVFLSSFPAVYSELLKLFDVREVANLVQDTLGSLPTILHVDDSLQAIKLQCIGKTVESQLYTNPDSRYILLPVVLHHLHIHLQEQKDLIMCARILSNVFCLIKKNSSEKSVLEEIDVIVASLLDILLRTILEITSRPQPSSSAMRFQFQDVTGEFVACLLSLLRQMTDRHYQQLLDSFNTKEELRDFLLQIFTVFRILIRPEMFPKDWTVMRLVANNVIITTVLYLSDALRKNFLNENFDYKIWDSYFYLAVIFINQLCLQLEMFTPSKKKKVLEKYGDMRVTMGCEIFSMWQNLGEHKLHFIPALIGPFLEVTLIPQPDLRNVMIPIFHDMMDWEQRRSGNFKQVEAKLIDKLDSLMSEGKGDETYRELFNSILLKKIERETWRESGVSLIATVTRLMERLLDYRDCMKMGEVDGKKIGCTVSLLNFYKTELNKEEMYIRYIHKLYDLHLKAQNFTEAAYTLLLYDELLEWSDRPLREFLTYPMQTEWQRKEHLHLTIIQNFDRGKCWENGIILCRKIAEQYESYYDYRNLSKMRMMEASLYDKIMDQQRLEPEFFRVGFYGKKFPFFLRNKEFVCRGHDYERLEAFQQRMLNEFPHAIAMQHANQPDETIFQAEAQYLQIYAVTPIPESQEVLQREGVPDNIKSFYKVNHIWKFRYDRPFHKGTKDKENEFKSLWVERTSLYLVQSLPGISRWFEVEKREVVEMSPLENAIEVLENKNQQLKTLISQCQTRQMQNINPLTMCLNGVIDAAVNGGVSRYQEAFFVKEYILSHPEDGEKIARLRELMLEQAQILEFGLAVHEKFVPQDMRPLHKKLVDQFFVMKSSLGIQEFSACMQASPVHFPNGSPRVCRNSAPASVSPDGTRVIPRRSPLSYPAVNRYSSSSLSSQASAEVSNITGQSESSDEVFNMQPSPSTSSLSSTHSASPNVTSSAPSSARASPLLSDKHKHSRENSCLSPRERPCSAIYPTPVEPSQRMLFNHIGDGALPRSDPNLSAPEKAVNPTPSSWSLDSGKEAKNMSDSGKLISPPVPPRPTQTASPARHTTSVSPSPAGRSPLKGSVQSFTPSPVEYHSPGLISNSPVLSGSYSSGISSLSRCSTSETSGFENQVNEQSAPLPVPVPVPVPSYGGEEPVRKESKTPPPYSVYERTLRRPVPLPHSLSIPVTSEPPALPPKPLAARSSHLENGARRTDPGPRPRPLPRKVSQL
UniProt Q9Y2A7: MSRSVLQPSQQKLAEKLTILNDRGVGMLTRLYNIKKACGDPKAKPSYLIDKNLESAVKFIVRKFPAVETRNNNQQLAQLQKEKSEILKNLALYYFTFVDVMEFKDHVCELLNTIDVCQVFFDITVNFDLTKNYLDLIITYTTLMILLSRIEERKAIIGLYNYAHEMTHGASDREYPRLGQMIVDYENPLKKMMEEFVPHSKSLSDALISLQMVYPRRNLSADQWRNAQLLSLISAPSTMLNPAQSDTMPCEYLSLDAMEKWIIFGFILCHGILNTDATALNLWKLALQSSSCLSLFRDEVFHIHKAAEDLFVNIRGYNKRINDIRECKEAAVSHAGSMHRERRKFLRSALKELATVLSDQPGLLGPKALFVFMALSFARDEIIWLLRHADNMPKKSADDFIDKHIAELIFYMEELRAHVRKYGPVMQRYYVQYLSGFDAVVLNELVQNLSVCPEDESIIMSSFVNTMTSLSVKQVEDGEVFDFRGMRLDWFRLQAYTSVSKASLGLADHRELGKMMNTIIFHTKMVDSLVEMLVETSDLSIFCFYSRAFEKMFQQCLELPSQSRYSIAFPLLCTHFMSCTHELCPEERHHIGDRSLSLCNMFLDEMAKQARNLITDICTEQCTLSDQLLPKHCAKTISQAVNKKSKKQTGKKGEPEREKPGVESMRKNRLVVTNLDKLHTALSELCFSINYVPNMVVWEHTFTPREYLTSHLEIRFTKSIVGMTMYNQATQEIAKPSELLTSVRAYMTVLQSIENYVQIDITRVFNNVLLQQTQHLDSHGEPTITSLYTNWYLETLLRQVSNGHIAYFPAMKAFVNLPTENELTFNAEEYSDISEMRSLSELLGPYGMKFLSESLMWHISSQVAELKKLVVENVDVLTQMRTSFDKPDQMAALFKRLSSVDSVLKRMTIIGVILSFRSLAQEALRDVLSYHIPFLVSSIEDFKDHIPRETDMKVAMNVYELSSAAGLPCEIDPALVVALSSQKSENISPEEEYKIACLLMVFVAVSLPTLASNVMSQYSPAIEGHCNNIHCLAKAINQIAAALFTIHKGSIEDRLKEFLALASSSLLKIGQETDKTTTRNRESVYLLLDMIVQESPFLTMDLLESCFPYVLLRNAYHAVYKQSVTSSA
UniProt Q9H7D0: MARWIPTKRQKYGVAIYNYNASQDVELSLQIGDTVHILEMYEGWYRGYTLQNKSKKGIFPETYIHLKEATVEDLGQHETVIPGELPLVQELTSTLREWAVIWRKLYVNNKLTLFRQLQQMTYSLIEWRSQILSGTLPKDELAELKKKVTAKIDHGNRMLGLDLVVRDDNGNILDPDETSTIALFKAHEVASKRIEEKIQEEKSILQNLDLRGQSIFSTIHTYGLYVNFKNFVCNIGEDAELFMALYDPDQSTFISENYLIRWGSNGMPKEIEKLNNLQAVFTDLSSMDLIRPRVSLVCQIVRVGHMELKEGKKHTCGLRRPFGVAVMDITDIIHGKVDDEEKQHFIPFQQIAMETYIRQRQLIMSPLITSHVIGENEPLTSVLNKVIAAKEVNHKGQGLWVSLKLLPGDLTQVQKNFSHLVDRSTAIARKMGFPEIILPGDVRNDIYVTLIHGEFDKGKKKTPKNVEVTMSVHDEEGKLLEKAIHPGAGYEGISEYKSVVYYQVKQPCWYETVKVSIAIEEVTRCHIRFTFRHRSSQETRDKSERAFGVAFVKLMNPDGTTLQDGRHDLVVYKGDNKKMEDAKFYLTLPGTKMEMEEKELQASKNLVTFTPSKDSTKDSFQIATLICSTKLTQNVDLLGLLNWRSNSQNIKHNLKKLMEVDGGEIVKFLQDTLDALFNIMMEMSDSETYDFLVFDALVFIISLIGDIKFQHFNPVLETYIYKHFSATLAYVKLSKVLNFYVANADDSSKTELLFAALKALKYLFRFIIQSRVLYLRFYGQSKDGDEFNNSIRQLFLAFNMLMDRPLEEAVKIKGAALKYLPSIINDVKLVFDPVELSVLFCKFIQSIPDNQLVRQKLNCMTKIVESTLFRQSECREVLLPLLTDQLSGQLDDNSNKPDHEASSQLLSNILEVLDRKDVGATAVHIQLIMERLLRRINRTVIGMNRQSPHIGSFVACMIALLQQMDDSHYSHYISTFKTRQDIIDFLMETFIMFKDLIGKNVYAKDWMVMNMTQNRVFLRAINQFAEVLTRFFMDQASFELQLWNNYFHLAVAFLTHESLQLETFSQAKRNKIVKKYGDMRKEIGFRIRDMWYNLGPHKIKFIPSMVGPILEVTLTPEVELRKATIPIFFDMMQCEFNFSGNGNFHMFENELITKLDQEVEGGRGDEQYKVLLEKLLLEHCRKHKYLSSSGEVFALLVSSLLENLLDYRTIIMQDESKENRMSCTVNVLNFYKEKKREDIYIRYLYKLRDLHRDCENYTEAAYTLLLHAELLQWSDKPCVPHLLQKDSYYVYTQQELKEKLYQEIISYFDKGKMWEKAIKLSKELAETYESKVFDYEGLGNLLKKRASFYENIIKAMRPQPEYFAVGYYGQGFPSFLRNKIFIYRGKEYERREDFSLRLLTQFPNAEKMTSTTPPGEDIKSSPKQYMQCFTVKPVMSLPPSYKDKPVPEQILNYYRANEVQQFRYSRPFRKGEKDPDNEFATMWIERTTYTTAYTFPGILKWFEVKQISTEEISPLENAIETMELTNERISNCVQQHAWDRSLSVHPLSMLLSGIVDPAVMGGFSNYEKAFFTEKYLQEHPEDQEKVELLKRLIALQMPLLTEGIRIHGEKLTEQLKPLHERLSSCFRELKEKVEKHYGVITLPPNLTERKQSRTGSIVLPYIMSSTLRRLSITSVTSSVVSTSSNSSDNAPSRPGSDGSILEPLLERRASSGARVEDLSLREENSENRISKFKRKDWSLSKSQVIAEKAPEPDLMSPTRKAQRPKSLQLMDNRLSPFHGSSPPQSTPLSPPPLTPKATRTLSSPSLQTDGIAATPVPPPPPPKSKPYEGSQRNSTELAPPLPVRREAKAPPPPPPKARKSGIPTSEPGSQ

Row | binding | Substance
1 | binds | DOCK4 (from UniProt Q8N1I0 1-1966)
2 | binds | NCKAP1 (from UniProt Q9Y2A7 1-1128)
3 | binds | DOCK5 (from UniProt Q9H7D0 1-1870)

— publication PMC8433149
